PubChem BioAssay AID1159578 – Peter MacCallum Cancer Centre – 2015
Assay: 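Knock-downs that alter how fast lymphatic endothelial cells migrate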 (primary screen). Cells: human lymphatic endothelial cells. Reagent: siRNA pool against human genes, 40 nM. Timing: 48 h after transfection. Detection: 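High-content imaging of dye-stained cells in a scratch assay measures filled wound area and nuclei per well; duplicate means given as ratio to mock and robust z-score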. Scale: migration robust z-score: higher = faster migration into the scratch; nuclei per well: higher = more cells in the well. Active means: 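Migration changed when robust z exceeds 2 or falls below -2 and mean nuclei number is at least 3300; otherwise not called changed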. Meaning of the calls: active = migration changed; inactive = no migration change, or too few cells.
The deposit covers about 18,000 reagents; shown is an unselected part. Of all reagents, about 1,030 (5.7%) got an active call. 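Inactive calls also include pools with fewer than 3300 nuclei, whose migration was not assessed.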 Raw values are not corrected between plates. Further read-outs or replicates are left out here. Reagent sequences are not shown.

gene symbol | migration robust z-score | nuclei per well, duplicate mean | call
FAR1 | -0.47 | 5178 | inactive
FAM193A | 0.17 | 4616 | inactive
SMIM21 | -1.89 | 3512 | inactive
GPR82 | 0.99 | 4980 | inactive
GMNN | 0.87 | 6468 | inactive
CD46 | 1.08 | 6639 | inactive
PADI2 | -1.04 | 6785 | inactive
SULT2B1 | -0.47 | 5139 | inactive
CDK5R2 | -5.17 | 2324 | inactive
RAB9A | 1.32 | 4691 | inactive
CPSF1 | -0.04 | 5760 | inactive
CHCHD4 | 1.12 | 5730 | inactive
ACSL1 | -0.18 | 5116 | inactive
ASB6 | -1.01 | 4356 | inactive
PPM1F | -0.44 | 6318 | inactive
FRMD7 | 1.08 | 4590 | inactive
ROS1 | -0.05 | 6442 | inactive
ZBTB25 | 0.3 | 6228 | inactive
RHOG | -2.02 | 5818 | active

Entries listed so far whose target name begins with S or s:
gene symbol | migration robust z-score | nuclei per well, duplicate mean | call
SMIM21 | -1.89 | 3512 | inactive
SULT2B1 | -0.47 | 5139 | inactive

More results:
gene symbol | migration robust z-score | nuclei per well, duplicate mean | call
P2RX6 | 1.17 | 4220 | inactive
S1PR4 | 2.38 | 5314 | active
NECAB2 | 0.14 | 5738 | inactive
PCDHGA10 | -0.93 | 5474 | inactive
PTK2 | -1.46 | 2782 | inactive
PRODH2 | -0.2 | 4582 | inactive
HIBCH | 0.39 | 6018 | inactive
OR10P1 | -0.03 | 6240 | inactive
TPM1 | -0.68 | 4984 | inactive
GUCA2A | 0.1 | 6884 | inactive
HEPH | 1.04 | 5994 | inactive
ZNF638 | -0.2 | 6397 | inactive
SLC25A39 | 0.93 | 6777 | inactive
C3 | -0.43 | 5002 | inactive
NELL2 | -0.18 | 5915 | inactive
FIS1 | -0.67 | 4198 | inactive
GLIPR1 | 3.31 | 5799 | active
DBNDD2 | 1.27 | 5913 | inactive
TMEM165 | -0.18 | 5961 | inactive
FBXO6 | -1.79 | 5417 | inactive
